In test [1] the target is T1, endogenous RelA in mouse Th1 cells (mouse, UniProt Q04207 1-549). The test is described as follows: coimmunoprecipitation of endogenous proteins from developing Th1 cells; in the time course the association did not occur until day 3 and then persisted through day 6.
For test [2], the target named is T1, endogenous RelA in mouse Th1 cells. Briefly: coimmunoprecipitation of endogenous proteins from Th1 cells.

The chains behind the UniProt entries cited, without tags or fusion partners.
UniProt Q04207: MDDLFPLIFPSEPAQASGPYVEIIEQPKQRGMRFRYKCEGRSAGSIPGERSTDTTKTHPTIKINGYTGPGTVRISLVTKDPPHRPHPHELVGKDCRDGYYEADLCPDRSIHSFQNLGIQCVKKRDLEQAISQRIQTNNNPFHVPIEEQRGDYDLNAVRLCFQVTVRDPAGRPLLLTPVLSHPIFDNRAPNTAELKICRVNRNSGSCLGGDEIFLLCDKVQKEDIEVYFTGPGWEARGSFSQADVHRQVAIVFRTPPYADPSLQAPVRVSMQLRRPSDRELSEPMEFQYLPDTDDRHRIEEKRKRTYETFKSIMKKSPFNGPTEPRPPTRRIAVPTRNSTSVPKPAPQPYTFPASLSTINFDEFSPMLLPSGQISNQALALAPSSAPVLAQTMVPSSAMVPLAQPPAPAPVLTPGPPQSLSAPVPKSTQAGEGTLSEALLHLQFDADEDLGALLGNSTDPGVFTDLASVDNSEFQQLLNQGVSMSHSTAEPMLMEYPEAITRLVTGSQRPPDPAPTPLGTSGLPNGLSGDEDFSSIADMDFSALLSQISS

For 1 molecule, binding results are on record in patent US20070128661A1 (Harvard, published 2007).

No constants are given. Whether binding was seen depends on the method and setting. In cells and extracts the contact can be indirect. Some entries that bind do so weakly or less than the wild type.

B1: endogenous T-bet in mouse Th1 cells (other, UniProt Q9JKD8 1-530, looked up)
chain: MGIVEPGCGDMLTGTEPMPSDEGRGPGADQQHRFFYPEPGAQDPTDRRAGSSLGTPYSGGALVPAAPGRFLGSFAYPPRAQVAGFPGPGEFFPPPAGAEGYPPVDGYPAPDPRAGLYPGPREDYALPAGLEVSGKLRVALSNHLLWSKFNQHQTEMIITKQGRRMFPFLSFTVAGLEPTSHYRMFVDVVLVDQHHWRYQSGKWVQCGKAEGSMPGNRLYVHPDSPNTGAHWMRQEVSFGKLKLTNNKGASNNVTQMIVLQSLHKYQPRLHIVEVNDGEPEAACSASNTHVFTFQETQFIAVTAYQNAEITQLKIDNNPFAKGFRENFESMYASVDTSVPSPPGPNCQLLGGDPFSPLLSNQYPVPSRFYPDLPGQPKDMISQPYWLGTPREHSYEAEFRAVSMKPTLLPSAPGPTVPYYRGQDVLAPGAGWPVAPQYPPKMSPAGWFRPMRTLPMDPGLGSSEEQGSSPSLWPEVTSLQPEPSDSGLGEGDTKRRRISPYPSSGDSSSPAGAPSPFDKETEGQFYNYFPN
modifications: phosphoserine at S508 found by mass spectrometry in primary Th1 cells
As for B1, the binding result in test [1] and in test [2] was “binds” each time.
